Data source: PubChem BioAssay AID1224830 (NIAID, 2016)
Assay: 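Regulators of TLR4 signalling towards TNF-alpha in macrophage-like cells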 (primary screen). Cells: human THP-1 monocytic leukaemia cells, TNF dual-luciferase reporter clone, PMA-differentiated to macrophage-like cells. Reagents: siRNA pool against human genes, 50 nM. Duration: LPS for 4 h, given about 3 days after siRNA transfection. Treatment: bacterial LPS (TLR4 ligand), 10 ng/ml. Measurement: 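TNF firefly reporter luminescence divided by renilla, normalised to the plate median, then turned into a robust z-score for each replicate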. Direction: TNF reporter robust z-score: higher = stronger TNF reporter response to LPS. Rule for the call: 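a well is active when its z-score exceeds 2.8 or falls below -1.5; control wells carry no call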.
Here is one part, drawn at random, of about 18,000 deposited reagents. Of all reagents, about 2,900 (16%) were called active. 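Calls are made per well; low scores hint the gene aids the LPS response, high scores that it dampens it.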 Repeated entries: four replicate wells of each siRNA pool.

no.	target	PubChem SID	TNF reporter robust z-score	Outcome
1	RNF114 (ring finger protein 114)	SID315457942	-1.11	inactive
2	RNF114 (ring finger protein 114)	SID315457942	-0.83	inactive
3	RNF114 (ring finger protein 114)	SID315457942	-1.32	inactive
4	RNF114 (ring finger protein 114)	SID315457942	0.1	inactive
5	LST1 (leukocyte specific transcript 1)	SID315452353	-0.37	inactive
6	LST1 (leukocyte specific transcript 1)	SID315452353	0.56	inactive
7	LST1 (leukocyte specific transcript 1)	SID315452353	0.33	inactive
8	LST1 (leukocyte specific transcript 1)	SID315452353	1.28	inactive
9	ANKRD1 (ankyrin repeat domain 1)	SID315455896	-0.59	inactive
10	ANKRD1 (ankyrin repeat domain 1)	SID315455896	-0.75	inactive
11	ANKRD1 (ankyrin repeat domain 1)	SID315455896	-1.01	inactive
12	ANKRD1 (ankyrin repeat domain 1)	SID315455896	-0.19	inactive
13	SRP14 (signal recognition particle 14)	SID315451635	0.31	inactive
14	SRP14 (signal recognition particle 14)	SID315451635	0.8	inactive
15	SRP14 (signal recognition particle 14)	SID315451635	0.34	inactive
16	SRP14 (signal recognition particle 14)	SID315451635	2.21	inactive
17	GTF2H1 (general transcription factor IIH subunit 1)	SID315449096	-0.01	inactive
18	GTF2H1 (general transcription factor IIH subunit 1)	SID315449096	-0.2	inactive
19	GTF2H1 (general transcription factor IIH subunit 1)	SID315449096	0.11	inactive
20	GTF2H1 (general transcription factor IIH subunit 1)	SID315449096	-0.27	inactive
21	NCOA4 (nuclear receptor coactivator 4)	SID315452379	-0.14	inactive
22	NCOA4 (nuclear receptor coactivator 4)	SID315452379	0.35	inactive
23	NCOA4 (nuclear receptor coactivator 4)	SID315452379	0.12	inactive
24	NCOA4 (nuclear receptor coactivator 4)	SID315452379	0.27	inactive

Next part (5 carried over from the part before).
no.	target	PubChem SID	TNF reporter robust z-score	Outcome
20	GTF2H1 (general transcription factor IIH subunit 1)	SID315449096	-0.27	inactive
21	NCOA4 (nuclear receptor coactivator 4)	SID315452379	-0.14	inactive
22	NCOA4 (nuclear receptor coactivator 4)	SID315452379	0.35	inactive
23	NCOA4 (nuclear receptor coactivator 4)	SID315452379	0.12	inactive
24	NCOA4 (nuclear receptor coactivator 4)	SID315452379	0.27	inactive
25	OPN3 (opsin 3)	SID315455357	2.21	inactive
26	OPN3 (opsin 3)	SID315455357	1.72	inactive
27	OPN3 (opsin 3)	SID315455357	0.47	inactive
28	OPN3 (opsin 3)	SID315455357	1.87	inactive
29	PABPC1L2A (poly(A) binding protein cytoplasmic 1 like 2A)	SID315464088	-0.57	inactive
30	PABPC1L2A (poly(A) binding protein cytoplasmic 1 like 2A)	SID315464088	-0.79	inactive
31	PABPC1L2A (poly(A) binding protein cytoplasmic 1 like 2A)	SID315464088	-1	inactive
32	PABPC1L2A (poly(A) binding protein cytoplasmic 1 like 2A)	SID315464088	-0.68	inactive
33	E2F2 (E2F transcription factor 2)	SID315448415	0.27	inactive
34	E2F2 (E2F transcription factor 2)	SID315448415	-0.88	inactive
35	E2F2 (E2F transcription factor 2)	SID315448415	-0.84	inactive
36	E2F2 (E2F transcription factor 2)	SID315448415	0.75	inactive
37	ERP44 (endoplasmic reticulum protein 44)	SID315454968	-0.44	inactive
38	ERP44 (endoplasmic reticulum protein 44)	SID315454968	0.74	inactive
39	ERP44 (endoplasmic reticulum protein 44)	SID315454968	-0.38	inactive
40	ERP44 (endoplasmic reticulum protein 44)	SID315454968	-0.39	inactive
41	CDC42EP2 (CDC42 effector protein 2)	SID315454085	-0.03	inactive
42	CDC42EP2 (CDC42 effector protein 2)	SID315454085	0.62	inactive
43	CDC42EP2 (CDC42 effector protein 2)	SID315454085	-0.59	inactive
44	CDC42EP2 (CDC42 effector protein 2)	SID315454085	0.65	inactive
45	MAFB (MAF bZIP transcription factor B)	SID315453689	-2.1	active
46	MAFB (MAF bZIP transcription factor B)	SID315453689	-1.62	active
47	MAFB (MAF bZIP transcription factor B)	SID315453689	-1.77	active
48	MAFB (MAF bZIP transcription factor B)	SID315453689	-1.7	active
